Source: article PMC7981807
These are yes or no findings as the source states them, for the method shown. In cells and extracts the contact can be indirect. Some results given as binding are weak or reduced against the parent protein; the word gives no strength. For some assays here: Tags and fused reporters may be left off the sequences shown. One block for each substance: values may come before it.

Chains of the proteins cited; added tags and fusions are not shown. Lines headed by an entry give the natural chain unless they say otherwise; changes in a name come on top. A line that says so, or that is headed by a name, gives the form on record, which may keep a tag or linker.
UniProt Q13547: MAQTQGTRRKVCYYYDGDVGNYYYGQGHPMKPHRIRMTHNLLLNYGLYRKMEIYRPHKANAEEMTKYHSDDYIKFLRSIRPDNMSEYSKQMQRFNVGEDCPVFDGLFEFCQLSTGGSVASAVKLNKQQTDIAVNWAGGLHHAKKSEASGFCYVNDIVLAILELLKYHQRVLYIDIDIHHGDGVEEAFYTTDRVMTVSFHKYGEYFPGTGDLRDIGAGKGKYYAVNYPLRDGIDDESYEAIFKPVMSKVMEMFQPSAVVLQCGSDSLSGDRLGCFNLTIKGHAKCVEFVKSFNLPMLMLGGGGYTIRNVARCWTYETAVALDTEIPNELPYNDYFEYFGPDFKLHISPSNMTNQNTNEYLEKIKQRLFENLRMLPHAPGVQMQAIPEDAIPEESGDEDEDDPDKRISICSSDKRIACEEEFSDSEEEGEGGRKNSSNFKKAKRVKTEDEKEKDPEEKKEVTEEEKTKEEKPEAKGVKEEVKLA
UniProt Q09472: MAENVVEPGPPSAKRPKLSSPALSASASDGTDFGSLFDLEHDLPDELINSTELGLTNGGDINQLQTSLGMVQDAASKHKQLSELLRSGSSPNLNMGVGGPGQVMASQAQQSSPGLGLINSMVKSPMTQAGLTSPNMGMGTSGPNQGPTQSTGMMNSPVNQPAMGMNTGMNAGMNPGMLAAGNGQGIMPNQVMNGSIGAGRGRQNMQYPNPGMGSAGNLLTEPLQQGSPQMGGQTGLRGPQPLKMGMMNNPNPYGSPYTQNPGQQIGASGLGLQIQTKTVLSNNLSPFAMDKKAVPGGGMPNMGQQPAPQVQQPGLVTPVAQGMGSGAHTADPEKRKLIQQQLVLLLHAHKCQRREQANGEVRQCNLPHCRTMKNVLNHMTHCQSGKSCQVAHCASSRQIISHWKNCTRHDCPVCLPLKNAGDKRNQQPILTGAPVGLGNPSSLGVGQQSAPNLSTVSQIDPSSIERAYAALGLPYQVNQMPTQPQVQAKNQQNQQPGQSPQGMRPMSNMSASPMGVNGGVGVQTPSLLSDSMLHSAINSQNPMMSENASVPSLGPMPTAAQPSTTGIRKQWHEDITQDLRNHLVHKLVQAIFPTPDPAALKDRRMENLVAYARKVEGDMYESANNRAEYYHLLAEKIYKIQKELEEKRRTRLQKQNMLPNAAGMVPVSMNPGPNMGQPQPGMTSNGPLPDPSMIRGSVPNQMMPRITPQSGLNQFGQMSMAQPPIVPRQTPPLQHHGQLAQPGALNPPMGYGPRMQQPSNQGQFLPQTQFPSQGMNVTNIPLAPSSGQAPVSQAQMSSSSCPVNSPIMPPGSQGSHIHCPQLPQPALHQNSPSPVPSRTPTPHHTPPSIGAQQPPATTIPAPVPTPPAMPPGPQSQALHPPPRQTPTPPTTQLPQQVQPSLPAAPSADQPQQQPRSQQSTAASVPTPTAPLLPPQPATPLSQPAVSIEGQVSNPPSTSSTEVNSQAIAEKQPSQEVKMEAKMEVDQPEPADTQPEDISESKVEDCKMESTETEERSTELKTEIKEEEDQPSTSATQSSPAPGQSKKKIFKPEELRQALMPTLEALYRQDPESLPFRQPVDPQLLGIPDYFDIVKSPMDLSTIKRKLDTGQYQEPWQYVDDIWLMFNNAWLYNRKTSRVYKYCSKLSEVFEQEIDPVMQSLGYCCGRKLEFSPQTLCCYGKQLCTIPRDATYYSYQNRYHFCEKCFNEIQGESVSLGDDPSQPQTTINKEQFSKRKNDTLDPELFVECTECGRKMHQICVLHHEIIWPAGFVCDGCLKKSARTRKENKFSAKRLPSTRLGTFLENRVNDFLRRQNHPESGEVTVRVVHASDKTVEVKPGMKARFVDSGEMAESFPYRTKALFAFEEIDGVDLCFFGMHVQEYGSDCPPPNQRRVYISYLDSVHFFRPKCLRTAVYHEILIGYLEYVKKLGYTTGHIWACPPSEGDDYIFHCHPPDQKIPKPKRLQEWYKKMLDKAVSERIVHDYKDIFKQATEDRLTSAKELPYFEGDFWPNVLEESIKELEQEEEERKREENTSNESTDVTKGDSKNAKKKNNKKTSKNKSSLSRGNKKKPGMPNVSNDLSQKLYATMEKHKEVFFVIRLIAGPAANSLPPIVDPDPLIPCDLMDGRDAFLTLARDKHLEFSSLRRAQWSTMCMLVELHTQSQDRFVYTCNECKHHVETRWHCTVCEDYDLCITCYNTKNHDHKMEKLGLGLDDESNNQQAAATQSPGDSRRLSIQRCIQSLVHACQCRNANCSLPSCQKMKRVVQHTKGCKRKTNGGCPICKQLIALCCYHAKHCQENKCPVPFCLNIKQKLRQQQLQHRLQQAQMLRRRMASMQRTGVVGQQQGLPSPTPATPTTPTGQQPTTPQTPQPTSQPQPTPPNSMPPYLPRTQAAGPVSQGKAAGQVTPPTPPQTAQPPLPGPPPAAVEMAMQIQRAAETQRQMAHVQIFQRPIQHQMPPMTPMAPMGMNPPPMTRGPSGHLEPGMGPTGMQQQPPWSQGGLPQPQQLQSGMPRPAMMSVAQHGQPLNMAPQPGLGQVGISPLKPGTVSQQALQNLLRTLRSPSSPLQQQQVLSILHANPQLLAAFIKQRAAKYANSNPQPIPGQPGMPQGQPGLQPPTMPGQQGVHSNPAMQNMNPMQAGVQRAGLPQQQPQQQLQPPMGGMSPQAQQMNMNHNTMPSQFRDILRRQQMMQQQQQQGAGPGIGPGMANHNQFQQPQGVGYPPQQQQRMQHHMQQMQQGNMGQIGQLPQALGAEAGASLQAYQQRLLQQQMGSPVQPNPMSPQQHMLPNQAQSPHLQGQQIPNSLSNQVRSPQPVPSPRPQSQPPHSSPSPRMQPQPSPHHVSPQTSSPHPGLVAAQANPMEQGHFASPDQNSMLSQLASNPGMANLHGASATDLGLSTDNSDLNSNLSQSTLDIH
UniProt Q92793: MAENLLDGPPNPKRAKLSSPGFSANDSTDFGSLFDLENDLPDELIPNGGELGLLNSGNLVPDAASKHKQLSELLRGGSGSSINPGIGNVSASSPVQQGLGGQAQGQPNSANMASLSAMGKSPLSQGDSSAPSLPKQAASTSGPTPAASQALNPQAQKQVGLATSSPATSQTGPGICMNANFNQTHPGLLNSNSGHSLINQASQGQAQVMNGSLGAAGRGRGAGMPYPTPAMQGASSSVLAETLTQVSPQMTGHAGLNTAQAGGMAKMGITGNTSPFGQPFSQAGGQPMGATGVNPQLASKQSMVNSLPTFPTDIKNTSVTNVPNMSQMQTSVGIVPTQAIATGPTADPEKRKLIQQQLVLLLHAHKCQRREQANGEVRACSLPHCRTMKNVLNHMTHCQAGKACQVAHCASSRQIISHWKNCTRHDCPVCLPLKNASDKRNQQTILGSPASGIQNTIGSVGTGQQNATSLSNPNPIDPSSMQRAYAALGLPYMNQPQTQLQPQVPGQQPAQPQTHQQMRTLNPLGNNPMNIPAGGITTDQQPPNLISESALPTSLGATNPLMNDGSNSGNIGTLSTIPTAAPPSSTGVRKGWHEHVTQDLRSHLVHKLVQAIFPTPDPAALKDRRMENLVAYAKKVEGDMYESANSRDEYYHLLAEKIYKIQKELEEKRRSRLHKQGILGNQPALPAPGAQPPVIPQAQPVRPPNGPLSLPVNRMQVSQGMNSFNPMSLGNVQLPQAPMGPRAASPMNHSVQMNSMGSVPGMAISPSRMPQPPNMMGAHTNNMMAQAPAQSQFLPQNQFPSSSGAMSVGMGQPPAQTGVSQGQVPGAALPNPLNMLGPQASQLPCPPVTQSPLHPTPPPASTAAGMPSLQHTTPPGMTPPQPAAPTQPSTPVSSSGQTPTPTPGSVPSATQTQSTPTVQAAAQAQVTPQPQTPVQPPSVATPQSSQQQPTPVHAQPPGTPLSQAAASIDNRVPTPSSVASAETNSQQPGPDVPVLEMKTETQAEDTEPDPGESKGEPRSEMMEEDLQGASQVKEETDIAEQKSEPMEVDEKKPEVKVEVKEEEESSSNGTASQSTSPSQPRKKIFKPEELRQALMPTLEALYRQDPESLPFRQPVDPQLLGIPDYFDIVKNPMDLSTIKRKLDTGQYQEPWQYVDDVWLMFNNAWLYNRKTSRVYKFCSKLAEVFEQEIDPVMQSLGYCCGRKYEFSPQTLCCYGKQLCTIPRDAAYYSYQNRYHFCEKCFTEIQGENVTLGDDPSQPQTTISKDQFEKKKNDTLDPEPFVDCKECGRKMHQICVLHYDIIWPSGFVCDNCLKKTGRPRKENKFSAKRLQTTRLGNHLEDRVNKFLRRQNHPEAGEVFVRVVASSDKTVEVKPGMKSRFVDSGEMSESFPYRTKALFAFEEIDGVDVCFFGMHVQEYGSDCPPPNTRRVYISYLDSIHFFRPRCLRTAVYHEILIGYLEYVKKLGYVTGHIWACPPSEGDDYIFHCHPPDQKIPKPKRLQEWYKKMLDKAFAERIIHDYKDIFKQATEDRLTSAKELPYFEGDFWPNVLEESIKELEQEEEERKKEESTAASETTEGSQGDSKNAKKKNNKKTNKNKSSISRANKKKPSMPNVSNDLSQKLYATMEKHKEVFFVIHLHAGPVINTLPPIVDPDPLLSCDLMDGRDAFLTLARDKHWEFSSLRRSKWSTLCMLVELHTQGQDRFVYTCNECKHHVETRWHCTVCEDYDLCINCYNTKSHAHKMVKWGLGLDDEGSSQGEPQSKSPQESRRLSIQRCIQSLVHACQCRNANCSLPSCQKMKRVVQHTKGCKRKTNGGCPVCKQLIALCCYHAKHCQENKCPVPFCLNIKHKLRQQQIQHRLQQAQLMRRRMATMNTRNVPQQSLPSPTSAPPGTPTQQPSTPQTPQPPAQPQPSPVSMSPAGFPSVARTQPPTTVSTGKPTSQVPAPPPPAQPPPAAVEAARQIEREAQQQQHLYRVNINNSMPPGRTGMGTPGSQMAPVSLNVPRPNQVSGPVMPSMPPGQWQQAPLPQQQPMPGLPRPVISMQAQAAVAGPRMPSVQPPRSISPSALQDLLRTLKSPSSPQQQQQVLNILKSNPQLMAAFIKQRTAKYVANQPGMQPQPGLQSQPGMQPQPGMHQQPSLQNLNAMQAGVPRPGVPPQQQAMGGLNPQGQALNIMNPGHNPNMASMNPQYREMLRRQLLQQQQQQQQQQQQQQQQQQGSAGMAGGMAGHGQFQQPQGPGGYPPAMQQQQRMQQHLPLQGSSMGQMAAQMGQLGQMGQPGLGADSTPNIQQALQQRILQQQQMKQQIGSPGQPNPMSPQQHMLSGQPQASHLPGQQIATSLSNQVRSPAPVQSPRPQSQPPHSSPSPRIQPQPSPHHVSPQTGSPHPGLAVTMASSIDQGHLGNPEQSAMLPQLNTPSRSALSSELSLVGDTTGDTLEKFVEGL
UniProt Q01196: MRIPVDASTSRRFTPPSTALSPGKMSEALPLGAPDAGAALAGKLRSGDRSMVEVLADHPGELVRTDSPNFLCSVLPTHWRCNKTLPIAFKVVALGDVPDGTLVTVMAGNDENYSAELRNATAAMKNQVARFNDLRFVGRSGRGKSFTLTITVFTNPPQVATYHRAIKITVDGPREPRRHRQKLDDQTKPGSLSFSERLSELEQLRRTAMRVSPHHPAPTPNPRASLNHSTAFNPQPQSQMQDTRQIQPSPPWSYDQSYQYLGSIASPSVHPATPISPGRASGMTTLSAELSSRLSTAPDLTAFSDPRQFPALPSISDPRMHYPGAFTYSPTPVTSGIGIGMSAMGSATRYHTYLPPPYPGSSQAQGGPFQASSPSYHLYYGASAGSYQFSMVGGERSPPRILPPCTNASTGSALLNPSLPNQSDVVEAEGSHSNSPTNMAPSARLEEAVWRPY
RUNX1^Δ50−175 (Q01196, form named): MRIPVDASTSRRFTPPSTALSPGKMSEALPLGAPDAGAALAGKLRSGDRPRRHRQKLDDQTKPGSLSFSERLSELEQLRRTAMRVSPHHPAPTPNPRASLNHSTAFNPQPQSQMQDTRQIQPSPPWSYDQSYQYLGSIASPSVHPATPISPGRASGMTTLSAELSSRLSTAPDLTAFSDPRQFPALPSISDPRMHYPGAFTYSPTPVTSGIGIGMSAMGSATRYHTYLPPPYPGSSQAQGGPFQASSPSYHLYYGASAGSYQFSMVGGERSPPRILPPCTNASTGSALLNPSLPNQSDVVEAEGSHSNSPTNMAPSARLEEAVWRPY
RUNX1^Δ244−322 (Q01196, form named): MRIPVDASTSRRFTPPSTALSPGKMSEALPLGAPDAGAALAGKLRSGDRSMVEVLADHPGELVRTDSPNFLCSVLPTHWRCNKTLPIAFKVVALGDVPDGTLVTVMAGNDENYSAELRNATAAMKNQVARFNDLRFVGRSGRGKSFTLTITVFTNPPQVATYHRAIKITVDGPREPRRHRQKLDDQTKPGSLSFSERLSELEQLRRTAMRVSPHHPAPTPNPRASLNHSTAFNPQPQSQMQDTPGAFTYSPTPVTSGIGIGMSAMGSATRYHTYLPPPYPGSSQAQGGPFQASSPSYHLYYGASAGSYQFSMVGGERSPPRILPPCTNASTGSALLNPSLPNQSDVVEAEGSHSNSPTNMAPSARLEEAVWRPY

What was measured:
[1] = target: HDAC1, endogenous (human (endogenous in REH and Nalm6)) (UniProt Q13547); assay: proximity ligation; Duolink PLA on endogenous proteins, dots per nucleus, in REH cells, Nalm6 cells and BCP-ALL patients' cells; cut-off two S.D. over the negative control, Fisher's exact test
[2] = target: EP300 (P300), endogenous (human (endogenous in REH and Nalm6)) (UniProt Q09472); assay: as above
[3] = target: CREBPP (CBP), endogenous (human (endogenous in REH and Nalm6)) (UniProt Q92793); assay: as above
[4] = target: T1, CBFA2T3 (Core-Binding Factor Runt Domain Alpha Subunit 2 Translocated To 3), endogenous (human (endogenous in REH, Nalm6 and BCP-ALL patients' cells)) (UniProt O75081); assay: as above
T1 sequence: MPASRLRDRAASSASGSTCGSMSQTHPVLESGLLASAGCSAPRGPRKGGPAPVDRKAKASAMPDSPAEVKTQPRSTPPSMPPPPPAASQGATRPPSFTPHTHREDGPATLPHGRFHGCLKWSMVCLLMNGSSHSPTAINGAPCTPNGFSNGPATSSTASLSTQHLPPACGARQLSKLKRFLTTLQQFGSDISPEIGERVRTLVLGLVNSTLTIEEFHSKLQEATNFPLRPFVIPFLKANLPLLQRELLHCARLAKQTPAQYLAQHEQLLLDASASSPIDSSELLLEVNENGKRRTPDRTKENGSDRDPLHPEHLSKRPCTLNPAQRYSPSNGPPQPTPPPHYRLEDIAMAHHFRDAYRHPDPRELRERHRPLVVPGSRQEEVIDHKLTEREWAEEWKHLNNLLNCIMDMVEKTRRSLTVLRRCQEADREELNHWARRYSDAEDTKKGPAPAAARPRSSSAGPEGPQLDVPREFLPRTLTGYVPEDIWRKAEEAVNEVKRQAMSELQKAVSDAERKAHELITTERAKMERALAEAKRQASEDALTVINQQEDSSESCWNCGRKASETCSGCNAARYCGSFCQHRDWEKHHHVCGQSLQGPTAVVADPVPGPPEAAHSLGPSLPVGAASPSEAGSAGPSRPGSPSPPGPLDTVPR

[5] = target: T2, SIN3A, endogenous (human (endogenous in REH and Nalm6)) (UniProt Q96ST3); assay: as above
T2 sequence: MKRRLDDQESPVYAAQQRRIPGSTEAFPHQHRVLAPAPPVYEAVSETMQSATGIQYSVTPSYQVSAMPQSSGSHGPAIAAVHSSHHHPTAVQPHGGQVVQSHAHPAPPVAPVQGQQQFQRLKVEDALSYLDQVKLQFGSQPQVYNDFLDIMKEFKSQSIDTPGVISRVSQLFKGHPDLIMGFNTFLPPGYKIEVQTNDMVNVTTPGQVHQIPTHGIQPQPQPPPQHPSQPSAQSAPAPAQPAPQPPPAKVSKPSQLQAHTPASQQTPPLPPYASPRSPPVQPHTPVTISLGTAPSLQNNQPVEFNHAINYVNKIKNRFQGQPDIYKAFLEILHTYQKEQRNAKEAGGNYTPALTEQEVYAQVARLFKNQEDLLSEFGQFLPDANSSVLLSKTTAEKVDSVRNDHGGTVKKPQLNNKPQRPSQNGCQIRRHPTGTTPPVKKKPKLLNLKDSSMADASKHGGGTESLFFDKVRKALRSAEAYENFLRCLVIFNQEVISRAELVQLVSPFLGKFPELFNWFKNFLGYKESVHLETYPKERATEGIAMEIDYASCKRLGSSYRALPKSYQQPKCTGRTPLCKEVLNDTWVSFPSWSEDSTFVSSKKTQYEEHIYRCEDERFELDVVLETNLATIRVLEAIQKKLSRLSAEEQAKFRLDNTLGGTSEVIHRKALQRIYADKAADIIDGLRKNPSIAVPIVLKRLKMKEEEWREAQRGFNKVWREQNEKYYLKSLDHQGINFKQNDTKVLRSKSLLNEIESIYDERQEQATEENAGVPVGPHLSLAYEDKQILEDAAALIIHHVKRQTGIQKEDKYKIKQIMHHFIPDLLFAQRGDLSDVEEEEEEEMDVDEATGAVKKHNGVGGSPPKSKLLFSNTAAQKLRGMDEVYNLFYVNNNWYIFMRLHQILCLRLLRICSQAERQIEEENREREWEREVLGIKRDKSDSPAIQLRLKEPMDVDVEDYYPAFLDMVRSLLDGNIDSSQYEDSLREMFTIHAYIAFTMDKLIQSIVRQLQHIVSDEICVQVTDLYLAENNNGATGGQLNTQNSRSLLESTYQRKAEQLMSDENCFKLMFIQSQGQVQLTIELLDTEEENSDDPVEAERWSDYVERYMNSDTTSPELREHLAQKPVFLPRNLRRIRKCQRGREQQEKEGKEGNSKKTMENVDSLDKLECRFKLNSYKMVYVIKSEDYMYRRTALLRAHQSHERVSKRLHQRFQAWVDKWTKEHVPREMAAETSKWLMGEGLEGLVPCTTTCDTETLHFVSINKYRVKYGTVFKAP

[6] = target: T1, CBFA2T3 (Core-Binding Factor Runt Domain Alpha Subunit 2 Translocated To 3), endogenous (human (endogenous in REH, Nalm6 and BCP-ALL patients' cells)); assay: proximity ligation; PLA of endogenous RUNX1 and CBFA2T3 in REH cells in presence or absence of CBFA2T3^NHR2-Myc
CBFA2T3-Flag (human) [7] = target: T3, CBFA2T3-Flag (human) (UniProt O75081); assay: co-IP; anti-Flag magnetic beads (M2), overnight at 4 °C, washed with TBS; HEK293 cells expressing tagged full-length or truncated proteins; blots with RUNX1, Myc and CBFA2T3 antibodies
T3 sequence: T1 sequence

CBFA2T3-Flag (human) [8] = target: T3, CBFA2T3-Flag (human); assay: co-IP; anti-Flag antibody in HEK293 cells expressing RUNX1-Halotag, CBFA2T3-Flag or CBFA2T3^NHR2-Myc; competition
CBFA2T3-Flag (human) [9] = target: T3, CBFA2T3-Flag (human); assay: proximity ligation; PLA of exogenous RUNX1 and CBFA2T3 in HEK293 cells in presence or absence of CBFA2T3^NHR2-Myc

binding [1]: binds | binding [2]: binds | binding [3]: binds | binding [4]: binds | binding [5]: binds | binding [6]: binds
Substance: RUNX1 (Runt Related Transcription Factor 1), endogenous (from UniProt Q01196 1-453)

binding (CBFA2T3-Flag (human) [7]): binds | binding (CBFA2T3-Flag (human) [8]): binds | binding (CBFA2T3-Flag (human) [9]): binds
Substance: RUNX1-Halotag (from UniProt Q01196 1-453)

binding (CBFA2T3-Flag (human) [7]): binds
Substance: RUNX1^Δ50−175 (from UniProt Q01196 1-453)

binding (CBFA2T3-Flag (human) [7]): binds weakly
Substance: RUNX1^Δ244−322 (from UniProt Q01196 1-453)
